The record followed here is the supplement of paper PMC11150407.

Counter-ions that a name gives are not always drawn. About 180 (8.6%) of roughly 2,100 compounds showed an effect of 50% or more. This is one part of the list.

This experiment deals with MOLM1 and UCSD/AML1 (averaged). Kind of experiment: cell viability relative to DMSO control (POC); higher = less growth inhibition. The following applies: 1 µM; 72 h. Here is the method:
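Primary viability screen in the 3q26 EVI1-high AML cell lines MOLM1 and UCSD/AML1 (1.5e3 cells/well, 384-well), compounds at 1 uM for 72 h. ATP CellTiter-Glo read-out given as percent of viable cells over DMSO control (POC), averaged over duplicates. DMSO was the negative control and 5 uM etoposide the positive control. This mapping covers the MicroSource Spectrum and Selleck anticancer libraries (drug names).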
For the compound `O=C(CCCN1CCN(c2ccccn2)CC1)c1ccc(F)cc1`, the cell viability (usually a read-out of living cells in per cent, often relative to untreated cells) is 102%.
The result for `CN1CCC(=C2c3ccccc3Sc3ccccc32)CC1` reads 92.2%; that for `COC1=CC(=O)C(C(=O)c2ccccc2)=CC1=O`, 103%; that for `N[C@@H](Cc1cc(I)c(Oc2ccc(O)c(I)c2)c(I)c1)C(=O)O`, 92.2%.
For `N[C@@H](Cc1cc(I)c(Oc2ccc(O)c(I)c2)c(I)c1)C(=O)O` [LIOTHYRONINE (L- isomer) SODIUM], the cell viability was 93.1%.
Take `CS(=O)(=O)OCCCCOS(C)(=O)=O`: the cell viability turned out to be 109%.
For the compound `CS(=O)(=O)OCCCCOS(C)(=O)=O` [Busulfan (Myleran, Busulfex)], the cell viability worked out at 74.3%.
For `O=C(/C=C/c1ccc(O)cc1)c1ccc(O)cc1O`, the cell viability came to 62.7%.
With `Cc1c(NC(=O)c2cccnc2)c(=O)n(-c2ccccc2)n1C`, the cell viability worked out at 85.6%.
As for `OCc1c[nH]c2ccccc12`, the cell viability is 87.2%.
In the case of `COc1ccc(-c2coc3c(O)c(O)c(OC)cc3c2=O)cc1`, the cell viability worked out at 111%.
With `N#CCNC(=O)c1ccc(-c2ccnc(Nc3ccc(N4CCOCC4)cc3)n2)cc1` [Momelotinib (CYT387)], the cell viability stood at 51.4%.
As for `N[C@@H](Cc1c[nH]c2ccccc12)C(=O)O`, the figure is 89.5%; as for `O=C(OOC(=O)c1ccccc1)c1ccccc1`, 101%; as for `CCC1(C)OC(=O)N(C)C1=O` (stereo not given), 115%.
`CC(O)Cn1cnc2c1c(=O)n(C)c(=O)n2C` (stereo not given): the cell viability came out at 94.4%.
As for `NS(=O)(=O)c1cc2c(cc1C(F)(F)F)NCNS2(=O)=O`, the figure is 102%; as for `NC(=O)CCCCC1CCSS1` (stereo not given), 94.1%.
As for `COc1cc2nccc(Oc3ccc(NC(=O)NC4CC4)c(Cl)c3)c2cc1C(N)=O` [E7080 (Lenvatinib)], the figure is 58%; as for `CN1C(=O)CC[C@H]1c1cccnc1`, 99.9%.
On to `CC[C@@H]1C(=O)OC[C@@H]1Cc1cncn1C`, for which the cell viability came to 101%.
On to `O=c1oc2c(O)c(O)cc3c(=O)oc4c(O)c(O)cc1c4c23`, for which the cell viability amounted to 90.8%.
Turning to `NC(=O)NCCC[C@H](N)C(=O)O`, the cell viability came to 93.7%.
In the case of `NS(=O)(=O)c1cc2c(cc1Cl)NC(C1CC3C=CC1C3)NS2(=O)=O` (stereo not given), the cell viability was found to be 103%.
Turning to `O=C1NS(=O)(=O)c2ccccc21`, the cell viability came out at 101%.
Regarding `CC(=O)CC(c1ccccc1)c1c(O)c2ccccc2oc1=O` (stereo not given), the cell viability came to 90.2%.
`CCN(CC)CC(=O)Nc1c(C)cccc1C`: the cell viability was 91.2%.
The result for `CC(C=CC(=O)NO)=CC(C)C(=O)c1ccc(N(C)C)cc1` (stereo not given) [Trichostatin A (TSA)] reads 1.52%; that for `CC(=O)OCC(=O)[C@@]12OC(C)(C)O[C@@H]1C[C@H]1[C@@H]3C[C@H](F)C4=CC(=O)C=C[C@]4(C)[C@@]3(F)[C@@H](O)C[C@@]12C`, 69.7%.
In the case of `c1ccc2c(CC3=NCCN3)cccc2c1`, the cell viability worked out at 67.8%.
`C=CC1=C(C(=O)O)N2C(=O)[C@@H](NC(=O)/C(=N\O)c3csc(N)n3)[C@H]2SC1`: the cell viability is 88%.
Consider `OCc1ccccc1O[C@@H]1O[C@H](CO)[C@@H](O)[C@H](O)[C@H]1O`, for which the cell viability amounted to 96.8%.
The result for `CC(=O)NS(=O)(=O)c1ccc(N)cc1` reads 104%.
In the case of `Oc1ccc([C@H]2Oc3cc(O)cc(O)c3C[C@H]2O)cc1`, the cell viability was 102%.
Take `COc1cccc2c1C(=O)c1c(O)c3c(c(O)c1C2=O)C[C@@](O)(C(C)=O)C[C@@H]3O[C@H]1C[C@H](N)[C@H](O)[C@H](C)O1` [Daunorubicin HCl (Daunomycin HCl)]: the cell viability worked out at 1.38%.
For `COc1cccc2c1C(=O)c1c(O)c3c(c(O)c1C2=O)C[C@@](O)(C(C)=O)C[C@@H]3O[C@H]1C[C@H](N)[C@H](O)[C@H](C)O1`, the cell viability was 1.85%.
Regarding `CC(C)c1c(O)ccc2c1CC[C@H]1C(C)(C)CCC[C@]21C`, the cell viability was 90.4%.
In the case of `CCCC1O[C@@H]2C[C@H]3[C@@H]4CCC5=CC(=O)C=C[C@]5(C)[C@H]4[C@@H](O)C[C@]3(C)[C@]2(C(=O)CO)O1` (stereo not given in full), the cell viability came to 80.2%.
As for `O=NN(CCCl)C(=O)NCCCl`, the figure is 82.2%; as for `CCOC(=O)c1ncn2c1CN(C)C(=O)c1cc(F)ccc1-2`, 93.5%.
`CC(C(=O)O)c1cccc(C(=O)c2ccccc2)c1` (stereo not given): the cell viability stood at 103%.
As for `C#C[C@]1(O)CC[C@H]2[C@@H]3CCc4cc(O)ccc4[C@H]3CC[C@@]21C`, the cell viability stood at 99.5%.
For `Cc1occc(=O)c1O`, the cell viability turned out to be 103%.
`CC(C)=CC1C(CO)C1(C)C` (stereo not given): the cell viability came out at 104%.
As for `CC1(C)CC23C(=O)CCC(O)C2(C)CCC13` (stereo not given), the figure is 96.7%; as for `CO[C@H]1O[C@H](CO)C(O[C@@H]2OC(C(=O)O)[C@@H](O[C@H]3O[C@H](COS(=O)(=O)O)C(O[C@@H]4OC(C(=O)O)[C@@H](O[C@H]5O[C@H](CO)C(O[C@@H]6OC(C(=O)O)[C@@H](O[C@H]7O[C@H](COS(=O)(=O)O)C(O[C@@H]8OC(C(=O)O)=C[C@H](O)C8OS(=O)(=O)O)[C@H](O)[C@H]7NC(C)=O)[C@H](O)[C@H]6O)[C@H](O)[C@H]5NC(C)=O)[C@H](O)[C@H]4O)[C@H](O)[C@H]3NC(C)=O)[C@H](O)[C@H]2O)[C@H](O)[C@H]1NC(C)=O` (stereo not given in full), 86.8%.
`CCOc1cc(CC(=O)N[C@@H](CC(C)C)c2ccccc2N2CCCCC2)ccc1C(=O)O`: the cell viability is 102%.
The result for `O=C(O)C(Cc1c[nH]c2ccccc12)N1C(=O)c2ccccc2C1=O` (stereo not given) reads 73.8%.
As for `COc1cc2c(cc1OC)C1(O)C(=O)c3ccc(O)c(C(=O)O)c3OC1CO2` (stereo not given), the figure is 101%.
In the case of `CCC(C(N)=O)c1ccccc1` (stereo not given), the cell viability was 109%.
For the compound `COc1c(N2C[C@@H]3CCCN[C@@H]3C2)c(F)cc2c(=O)c(C(=O)O)cn(C3CC3)c12`, the cell viability came out at 92.8%.
Take `COc1ccc(C(=O)c2ccccc2)c(O)c1`: the cell viability was 90.2%.
With `CC1(C)C(=O)C=CC2(C)C1C=CC1(C)C2CCC2(C)C(c3ccoc3)OC(=O)C3OC312` (stereo not given), the cell viability turned out to be 86.9%.
Consider `COc1ncnc(NS(=O)(=O)c2ccc(N)cc2)c1OC`, for which the cell viability came to 96.1%.
As to `CC(=O)OCC(=O)[C@@]1(O)[C@H](C)C[C@H]2[C@@H]3CCC4=CC(=O)C=C[C@]4(C)[C@@]3(F)[C@@H](O)C[C@@]21C` [Dexamethasone acetate], the cell viability was 63.4%.
As for `CC(=O)OCC(=O)[C@@]1(O)[C@H](C)C[C@H]2[C@@H]3CCC4=CC(=O)C=C[C@]4(C)[C@@]3(F)[C@@H](O)C[C@@]21C`, the figure is 65.8%; as for `COc1ccc(C(=O)CC(=O)c2ccc(C(C)(C)C)cc2)cc1`, 87.3%.
For the compound `NCCSSCCN`, the cell viability is 113%.
Regarding `CC(C)NCC(O)c1ccc(O)c(O)c1` (stereo not given), the cell viability was 119%.
The result for `CS(=O)(=O)N1CCN(Cc2cc3nc(-c4cccc5[nH]ncc45)nc(N4CCOCC4)c3s2)CC1` [Pictilisib (GDC-0941)] reads 51.1%.
